# Assay results: PubChem BioAssay AID1347076 (National Center for Advancing Translational Sciences (NCATS), 2019)
# About 13,000 (3.2%) of roughly 400,000 compounds were called active. This list was built around the results that the source calls inconclusive (neither active nor inactive); the mix of calls is not that of the screen. The call rests on the fitted dose curve; in most records, active means well fitted cell-killing curve with a large enough effect; inconclusive means small, poorly fitted or top-dose-only effect, or effect the other way; inactive means flat fitted curve, though single readings scatter. Where the call is inconclusive, the potency comes from a doubtful curve fit.
# Assay: qHTS assay for MDR1-selective chemotherapeutics: Primary screen using the drug-selected MDR subline cells KB-V1; further: nearly all actives have a fitted effect of over 60% in size
# Conditions: KB-V1 MDR cells viability, CellTiter-Glo, 72 h; activity change, negative = cytotoxicity: at 46.1 µM (top of the series)
# Procedure, shortened: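 Cytotoxicity toward P-gp-expressing KB-V1 cells was determined as loss of CellTiter-Glo luminescence after 72 h at 37 degrees C. Compounds were tested in quantitative HTS format across a concentration range, with curves fitted to normalized data.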
# On the % scale 0 is the no-effect control and ±100 the full control effect; potency means the concentration at half of the fitted maximal effect.
SMILES,Potency,"activity change, negative = cytotoxicity"
CCc1ccccc1Oc1ccc(S(=O)(=O)N2CCN(C)CC2)cn1,inactive,–
Cc1ccc2c(c1)c1c(n2CC(O)CNC2CCCC2)CCCC1 (stereo unspecified),active: 20.6 µM,–
O=c1[nH]c(C(Cl)Cl)nc2sc3c(c12)CCN(Cc1ccccc1)C3,inactive,–
CC1CC(C)CN(CCCNC(=O)CCNC(=O)Cn2ccc3ccccc3c2=O)C1 (stereo unspecified),inactive,–
CCCCc1nnc(NC(=O)CCN2C(=O)C3CC=CCC3C2=O)s1 (stereo unspecified),inactive,–
CC(C)(C)OC(=O)N1CCCC(C(=O)Nc2ccc(C(=O)N3CCOCC3)cc2)C1 (stereo unspecified),"inconclusive: 3.66 µM [cytotoxic, partial curve]",–
NC(=O)C1=C(c2ccccc2)c2ccccc2C1=O,"inconclusive: 16.4 µM [cytotoxic, single point]",–
COc1ccc(CCNC(=O)C2CCN(Cc3nc(-c4ccc(OC)c(OC)c4)oc3C)CC2)cc1OC,inactive,–
Oc1ccc(NC(=S)N=Nc2c(O)[nH]c3ccc(Br)cc23)cc1,–,inconclusive: -31.4% [cytotoxic]
Cc1nc(C(F)(F)F)ccc1C(=O)N1CCC1(C)C(=O)NS(=O)(=O)c1cccc(F)c1 (stereo unspecified),inactive,–
COc1ccccc1NC(=O)C(C)NC(c1ccccc1)c1ccccc1 (stereo unspecified),"inconclusive: 16.4 µM [cytotoxic, partial curve, poor fit]",–
O=C(NCCn1cc(SCc2ccc(Br)cc2)c2ccccc21)c1cccs1,"inconclusive: 25.9 µM [cytotoxic, single point]",–
Cc1ccc(-c2cn(CCC(=O)O)c(-c3ccc(Cl)nc3)n2)cc1,–,inconclusive: 14.1%
O=C(NCC1CCCO1)c1ccccc1-c1nc(-c2ccc(Cl)cc2)no1 (stereo unspecified),"inconclusive: 0.92 µM [cytotoxic, partial curve, poor fit]",–
NS(=O)(=O)c1ccc(NC(=O)COC(=O)C2CC(=O)N(Cc3ccccc3)C2)cc1 (stereo unspecified),"inconclusive: 32.6 µM [rising, single point]",–
CC1(C(=O)NC(=S)N(CCC#N)c2ccccc2)CC1(Cl)Cl (stereo unspecified),inactive,–
N#CC1(C(N)=O)OC12CCS(=O)(=O)c1ccccc12 (stereo unspecified),inactive,–
O=C(CSC1=NCCN1)Nc1cccc([N+](=O)[O-])c1,inactive,–
CN(CC(=O)Nc1cccc(F)c1)C(=O)CSc1ccc(Br)cc1,inactive,–
CCc1ccccc1NC(=O)CN1CCN(C(=O)c2cccc(-n3cnnn3)c2)CC1,"inconclusive: 29.1 µM [rising, single point]",–
CC(C)(C)c1nc2ccccc2c2nnc(SCC(=O)NCc3ccco3)n12,active: 5.17 µM,–
CC(NC(=O)Cn1c(NCCO)nc2ccccc21)c1ccccc1 (stereo unspecified),inactive,–
CC(=O)c1cccc(Nc2ccc(-c3ccccc3F)nn2)c1,inactive,–

# Random excerpt: 4 records from the list.
SMILES,Potency,"activity change, negative = cytotoxicity"
Cc1ccc2c(c1)c1c(n2CC(O)CNC2CCCC2)CCCC1 (stereo unspecified),active: 20.6 µM,–
Oc1ccc(NC(=S)N=Nc2c(O)[nH]c3ccc(Br)cc23)cc1,–,inconclusive: -31.4% [cytotoxic]
CC1(C(=O)NC(=S)N(CCC#N)c2ccccc2)CC1(Cl)Cl (stereo unspecified),inactive,–
COc1ccc(CCNC(=O)C2CCN(Cc3nc(-c4ccc(OC)c(OC)c4)oc3C)CC2)cc1OC,inactive,–

# The listing continues.

SMILES,Potency,"activity change, negative = cytotoxicity"
CCCC(=O)N1CCc2cc(OC)c(OC)cc2C1COc1ccc(C(=O)OC)cc1 (stereo unspecified),"inconclusive: 0.0046 µM [cytotoxic, full curve, poor fit]",–
COC(=O)[C@@]12C[C@@H](CC(=O)NCc3ccc(OC)c(OC)c3)C(=O)N(Cc3ccc4c(c3)OCO4)C1=CCC(C)(C)C2,"inconclusive: 23.1 µM [cytotoxic, single point]",–
Cc1ccccc1NC(=O)CSc1nc2ccc(Nc3nc(N4CCOCC4)nc(N4CCOCC4)n3)cc2s1,"inconclusive: 29.1 µM [cytotoxic, single point]",–
COC(=O)c1onc(-c2ccccc2)c1C(=O)OC,inactive,–
O=C(CNC(=O)c1ccc(Cl)cc1Cl)OCC(=O)N1CCCC1,"inconclusive: 4.61 µM [rising, full curve]",–
O=c1[nH]c2ccccc2n1CCCSCCCn1c(=O)[nH]c2ccccc21,active: 18.4 µM,–
CCOC(=O)CC(NC(=O)CCS(=O)(=O)c1ccc2c(c1)n(C)c(=O)c(=O)n2C)c1ccc(C)cc1 (stereo unspecified),"inconclusive: 14.6 µM [rising, single point]",–
O=C(Nc1ccccc1Cl)C1CCCN1C(=O)OCc1ccccc1 (stereo unspecified),"inconclusive: 29.1 µM [cytotoxic, single point]",–
CC1CCN(c2nnc(N)s2)CC1,"inconclusive: 11.2 µM [rising, partial curve]",–
CCN(CC)C(=O)Cn1c(=O)n(CC2CCC(C(=O)NC)CC2)c(=O)c2sccc21 (stereo unspecified),inactive,–
COC(=O)c1cc(Cl)c(NC(=O)C(C)C)cc1OC,inactive,–
O=C(Nc1nc2ccccc2n1Cc1ccccc1)c1ccco1,inactive,–
COC(=O)CCC[C@H]1CC2(C[C@H](CCCO[Si](C)(C)C(C)(C)C)N1C(=O)OC(C)(C)C)OCCO2,"inconclusive: 20.6 µM [cytotoxic, partial curve]",–
CC(=O)NC(c1ccc2ccccc2c1)c1ccc2cccnc2c1O (stereo unspecified),"inconclusive: 29.1 µM [cytotoxic, partial curve, poor fit]",–
COc1cccc(CN(C)C(=O)c2ccc3c(=O)n4c(nc3c2)CCC4)c1OC,"inconclusive: 20.6 µM [cytotoxic, single point]",–
O=C(CCc1nc(-c2ccccc2)no1)NCc1ccccc1CN1CCOCC1,"inconclusive: 20.6 µM [cytotoxic, single point]",–
COc1ccc(C)cc1-n1cnc2cc(C(=O)NC3CCCCCC3)ccc21,"inconclusive: 2.91 µM [cytotoxic, partial curve, poor fit]",–
COc1ccc(N(C)S(=O)(=O)c2cccc(C(=O)N3CCN(Cc4ccc5c(c4)OCO5)CC3)c2)cc1,"inconclusive: 18.4 µM [cytotoxic, single point]",–
O=C(NC(=S)Nc1ccc(N2CCOCC2)cc1)c1ccc2c(c1)OCCO2,"inconclusive: 29.1 µM [cytotoxic, single point]",–
O=C(CSc1nnc(-c2ccc(OC(F)F)cc2)o1)NCc1cccs1,"inconclusive: 25.9 µM [cytotoxic, single point]",–
Cc1ccc(C(=O)NCc2ccccc2F)cc1S(=O)(=O)N1CCCC1,"inconclusive: 18.4 µM [cytotoxic, single point]",–
CCN(CC)c1nc2ccccc2nc1C(C#N)C(=O)NCCc1ccccc1 (stereo unspecified),inactive,–
Cc1nnc(SCC(=O)Nc2ccc(O)cc2)c2ccccc12,"inconclusive: 29.1 µM [rising, single point]",–
